In the supplement of paper PMC10849652:
Some of the results follow.

Protein sequences, listed by entry. Tags and fused reporters are not part of them. Lines headed by an entry give the natural chain unless they say otherwise; changes in a name come on top.
UniProt O95628: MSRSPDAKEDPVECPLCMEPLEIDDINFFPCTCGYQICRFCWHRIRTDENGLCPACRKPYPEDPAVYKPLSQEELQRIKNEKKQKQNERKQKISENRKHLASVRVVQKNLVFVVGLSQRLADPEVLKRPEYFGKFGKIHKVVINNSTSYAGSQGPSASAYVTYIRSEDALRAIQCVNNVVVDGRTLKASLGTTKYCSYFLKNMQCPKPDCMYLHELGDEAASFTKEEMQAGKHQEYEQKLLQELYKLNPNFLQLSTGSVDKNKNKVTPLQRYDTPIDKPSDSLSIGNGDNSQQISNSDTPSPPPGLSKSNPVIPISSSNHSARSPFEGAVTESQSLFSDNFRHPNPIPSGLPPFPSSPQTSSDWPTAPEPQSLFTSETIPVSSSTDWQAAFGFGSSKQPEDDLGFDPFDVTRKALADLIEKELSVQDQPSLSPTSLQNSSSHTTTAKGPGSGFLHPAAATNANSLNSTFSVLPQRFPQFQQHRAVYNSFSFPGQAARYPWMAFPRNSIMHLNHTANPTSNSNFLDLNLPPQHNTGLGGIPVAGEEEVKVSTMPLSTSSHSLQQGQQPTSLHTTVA
UniProt Q9H9A5, whole entry, looked up: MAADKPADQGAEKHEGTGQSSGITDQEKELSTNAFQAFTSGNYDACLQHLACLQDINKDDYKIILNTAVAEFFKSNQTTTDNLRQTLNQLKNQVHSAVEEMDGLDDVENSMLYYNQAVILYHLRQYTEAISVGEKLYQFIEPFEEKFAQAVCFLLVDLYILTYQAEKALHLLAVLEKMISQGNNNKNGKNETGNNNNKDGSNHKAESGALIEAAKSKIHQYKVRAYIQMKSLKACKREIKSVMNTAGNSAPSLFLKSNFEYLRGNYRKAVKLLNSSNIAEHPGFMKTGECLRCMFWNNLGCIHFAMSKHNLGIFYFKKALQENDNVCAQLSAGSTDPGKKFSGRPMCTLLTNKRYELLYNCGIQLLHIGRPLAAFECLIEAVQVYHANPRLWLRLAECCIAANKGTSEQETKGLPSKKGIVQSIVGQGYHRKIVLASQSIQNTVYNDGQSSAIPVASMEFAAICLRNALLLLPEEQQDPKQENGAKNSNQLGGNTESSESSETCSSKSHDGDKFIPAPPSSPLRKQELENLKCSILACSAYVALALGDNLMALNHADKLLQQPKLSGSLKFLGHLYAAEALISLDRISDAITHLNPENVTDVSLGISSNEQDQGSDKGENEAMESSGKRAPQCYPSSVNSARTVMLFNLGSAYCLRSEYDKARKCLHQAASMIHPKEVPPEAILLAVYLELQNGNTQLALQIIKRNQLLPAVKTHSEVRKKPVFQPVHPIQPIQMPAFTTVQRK
UniProt Q9NX08, whole entry, looked up: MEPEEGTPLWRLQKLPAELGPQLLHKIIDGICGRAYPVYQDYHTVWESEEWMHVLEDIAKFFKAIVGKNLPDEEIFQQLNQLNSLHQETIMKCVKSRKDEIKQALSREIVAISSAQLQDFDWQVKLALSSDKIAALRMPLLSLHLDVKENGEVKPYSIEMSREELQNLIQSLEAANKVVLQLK
UniProt Q5JTJ3: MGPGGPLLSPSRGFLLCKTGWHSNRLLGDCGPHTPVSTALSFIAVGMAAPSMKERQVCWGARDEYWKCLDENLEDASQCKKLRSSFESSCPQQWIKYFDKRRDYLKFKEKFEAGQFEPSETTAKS
UniProt A8TX70: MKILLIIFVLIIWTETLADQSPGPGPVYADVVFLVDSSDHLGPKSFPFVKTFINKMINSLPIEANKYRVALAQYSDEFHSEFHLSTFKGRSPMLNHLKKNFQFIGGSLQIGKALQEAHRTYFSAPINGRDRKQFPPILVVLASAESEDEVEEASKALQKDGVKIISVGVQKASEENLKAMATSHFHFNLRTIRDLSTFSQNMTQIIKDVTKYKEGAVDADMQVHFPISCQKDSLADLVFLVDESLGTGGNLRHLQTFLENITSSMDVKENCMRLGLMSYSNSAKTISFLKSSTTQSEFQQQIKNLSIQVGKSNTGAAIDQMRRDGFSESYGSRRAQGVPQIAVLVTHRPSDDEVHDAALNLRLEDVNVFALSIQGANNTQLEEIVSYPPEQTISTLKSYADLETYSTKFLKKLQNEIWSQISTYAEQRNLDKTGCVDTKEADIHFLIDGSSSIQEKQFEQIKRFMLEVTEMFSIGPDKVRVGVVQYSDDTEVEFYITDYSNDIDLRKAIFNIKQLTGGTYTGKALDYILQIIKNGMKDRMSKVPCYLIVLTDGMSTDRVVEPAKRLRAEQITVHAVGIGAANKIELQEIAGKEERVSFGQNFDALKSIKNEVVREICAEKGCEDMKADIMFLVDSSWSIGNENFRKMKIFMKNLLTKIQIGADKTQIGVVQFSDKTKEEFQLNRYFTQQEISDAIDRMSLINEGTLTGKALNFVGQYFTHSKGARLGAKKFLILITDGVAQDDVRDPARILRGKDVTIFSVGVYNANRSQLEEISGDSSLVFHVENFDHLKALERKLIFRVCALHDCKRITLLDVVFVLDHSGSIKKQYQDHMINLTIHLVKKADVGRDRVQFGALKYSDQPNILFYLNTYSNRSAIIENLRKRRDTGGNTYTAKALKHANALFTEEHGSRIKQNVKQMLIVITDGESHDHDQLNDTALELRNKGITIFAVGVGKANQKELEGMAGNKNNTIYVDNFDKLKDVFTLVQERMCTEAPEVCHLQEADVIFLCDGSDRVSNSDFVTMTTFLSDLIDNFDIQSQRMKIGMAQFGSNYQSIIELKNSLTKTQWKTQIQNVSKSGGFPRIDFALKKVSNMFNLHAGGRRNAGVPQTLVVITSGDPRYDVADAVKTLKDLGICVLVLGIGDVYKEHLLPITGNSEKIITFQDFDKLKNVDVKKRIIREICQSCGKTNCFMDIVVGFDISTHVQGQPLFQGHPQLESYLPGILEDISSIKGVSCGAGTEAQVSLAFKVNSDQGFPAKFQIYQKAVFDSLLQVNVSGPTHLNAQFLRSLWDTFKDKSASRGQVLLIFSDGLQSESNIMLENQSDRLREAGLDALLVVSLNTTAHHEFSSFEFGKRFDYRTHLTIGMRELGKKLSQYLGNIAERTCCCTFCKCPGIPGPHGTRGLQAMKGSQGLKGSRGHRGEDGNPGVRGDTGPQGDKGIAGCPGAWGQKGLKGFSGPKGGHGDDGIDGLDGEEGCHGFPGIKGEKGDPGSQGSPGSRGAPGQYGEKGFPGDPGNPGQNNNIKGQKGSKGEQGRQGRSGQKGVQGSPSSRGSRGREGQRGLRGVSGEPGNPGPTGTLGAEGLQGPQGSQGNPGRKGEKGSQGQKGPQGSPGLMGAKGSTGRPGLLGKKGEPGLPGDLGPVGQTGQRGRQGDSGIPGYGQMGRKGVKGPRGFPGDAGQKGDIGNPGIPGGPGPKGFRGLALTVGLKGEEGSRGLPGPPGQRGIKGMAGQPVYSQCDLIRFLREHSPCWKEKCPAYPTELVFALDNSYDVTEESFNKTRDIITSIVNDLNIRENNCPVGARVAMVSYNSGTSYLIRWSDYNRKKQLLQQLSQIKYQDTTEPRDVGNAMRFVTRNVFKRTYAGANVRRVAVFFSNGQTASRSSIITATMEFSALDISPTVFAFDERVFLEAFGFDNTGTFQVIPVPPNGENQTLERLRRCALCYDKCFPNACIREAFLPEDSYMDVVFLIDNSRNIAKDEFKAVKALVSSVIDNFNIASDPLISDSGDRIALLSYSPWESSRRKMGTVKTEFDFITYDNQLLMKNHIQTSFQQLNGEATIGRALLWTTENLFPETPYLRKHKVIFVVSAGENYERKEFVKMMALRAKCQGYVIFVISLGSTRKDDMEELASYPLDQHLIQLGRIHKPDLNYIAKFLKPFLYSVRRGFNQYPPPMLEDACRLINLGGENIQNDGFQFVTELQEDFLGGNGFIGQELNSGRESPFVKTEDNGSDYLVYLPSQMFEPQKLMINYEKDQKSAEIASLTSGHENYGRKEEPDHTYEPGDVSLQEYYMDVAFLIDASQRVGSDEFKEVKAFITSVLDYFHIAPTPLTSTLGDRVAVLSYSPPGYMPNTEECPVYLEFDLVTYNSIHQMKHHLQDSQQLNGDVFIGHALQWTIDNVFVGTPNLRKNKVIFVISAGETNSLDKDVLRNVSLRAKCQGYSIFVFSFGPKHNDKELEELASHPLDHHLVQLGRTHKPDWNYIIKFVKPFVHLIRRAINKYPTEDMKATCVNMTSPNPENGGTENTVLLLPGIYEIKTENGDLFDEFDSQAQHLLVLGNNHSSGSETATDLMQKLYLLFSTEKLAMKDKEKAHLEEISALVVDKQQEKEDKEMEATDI
UniProt P09543: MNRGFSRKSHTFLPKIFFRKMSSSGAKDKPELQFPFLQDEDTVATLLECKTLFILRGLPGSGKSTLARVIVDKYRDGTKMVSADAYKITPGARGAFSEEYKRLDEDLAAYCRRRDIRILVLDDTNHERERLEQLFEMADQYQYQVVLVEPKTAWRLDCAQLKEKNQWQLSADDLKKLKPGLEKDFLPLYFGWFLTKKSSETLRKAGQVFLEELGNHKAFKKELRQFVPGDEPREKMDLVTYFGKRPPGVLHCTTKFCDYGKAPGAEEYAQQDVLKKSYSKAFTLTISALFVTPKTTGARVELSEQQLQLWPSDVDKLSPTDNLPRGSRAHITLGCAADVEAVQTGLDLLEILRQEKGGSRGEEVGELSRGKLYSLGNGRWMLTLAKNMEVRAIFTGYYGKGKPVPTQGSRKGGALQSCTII
UniProt Q5RI15: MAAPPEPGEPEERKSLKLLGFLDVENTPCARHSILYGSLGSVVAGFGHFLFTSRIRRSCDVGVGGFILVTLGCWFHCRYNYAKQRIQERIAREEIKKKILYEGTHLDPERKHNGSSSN
UniProt Q49B96: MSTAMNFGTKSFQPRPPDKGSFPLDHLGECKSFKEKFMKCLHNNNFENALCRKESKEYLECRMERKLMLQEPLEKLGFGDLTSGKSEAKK
UniProt Q9GZQ3, whole entry, looked up: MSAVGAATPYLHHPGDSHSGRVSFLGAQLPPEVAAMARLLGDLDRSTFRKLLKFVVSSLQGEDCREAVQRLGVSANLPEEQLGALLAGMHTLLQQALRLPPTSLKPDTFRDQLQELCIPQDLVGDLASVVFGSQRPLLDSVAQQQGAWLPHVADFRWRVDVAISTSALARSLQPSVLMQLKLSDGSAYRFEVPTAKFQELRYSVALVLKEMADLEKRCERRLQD
UniProt Q9NZN8, whole entry, looked up: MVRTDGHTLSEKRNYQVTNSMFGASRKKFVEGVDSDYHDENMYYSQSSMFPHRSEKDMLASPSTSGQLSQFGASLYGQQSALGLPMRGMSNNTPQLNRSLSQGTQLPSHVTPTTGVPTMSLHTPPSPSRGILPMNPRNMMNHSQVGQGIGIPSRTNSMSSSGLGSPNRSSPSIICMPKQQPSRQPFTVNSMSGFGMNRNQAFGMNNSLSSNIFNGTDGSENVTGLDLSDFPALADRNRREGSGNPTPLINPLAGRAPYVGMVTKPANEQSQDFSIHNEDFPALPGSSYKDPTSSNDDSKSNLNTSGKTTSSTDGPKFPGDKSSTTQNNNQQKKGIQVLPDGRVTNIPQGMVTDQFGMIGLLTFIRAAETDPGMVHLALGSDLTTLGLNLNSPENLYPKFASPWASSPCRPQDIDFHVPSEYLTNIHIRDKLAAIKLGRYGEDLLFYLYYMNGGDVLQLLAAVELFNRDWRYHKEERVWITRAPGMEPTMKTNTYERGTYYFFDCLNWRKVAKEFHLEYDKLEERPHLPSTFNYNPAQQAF
UniProt P78560: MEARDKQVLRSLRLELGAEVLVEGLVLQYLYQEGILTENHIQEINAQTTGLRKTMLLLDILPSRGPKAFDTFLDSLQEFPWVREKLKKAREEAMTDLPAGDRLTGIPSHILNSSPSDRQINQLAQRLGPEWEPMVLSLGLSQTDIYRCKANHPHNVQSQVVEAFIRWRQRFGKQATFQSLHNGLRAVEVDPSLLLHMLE
UniProt O75175, whole entry, looked up: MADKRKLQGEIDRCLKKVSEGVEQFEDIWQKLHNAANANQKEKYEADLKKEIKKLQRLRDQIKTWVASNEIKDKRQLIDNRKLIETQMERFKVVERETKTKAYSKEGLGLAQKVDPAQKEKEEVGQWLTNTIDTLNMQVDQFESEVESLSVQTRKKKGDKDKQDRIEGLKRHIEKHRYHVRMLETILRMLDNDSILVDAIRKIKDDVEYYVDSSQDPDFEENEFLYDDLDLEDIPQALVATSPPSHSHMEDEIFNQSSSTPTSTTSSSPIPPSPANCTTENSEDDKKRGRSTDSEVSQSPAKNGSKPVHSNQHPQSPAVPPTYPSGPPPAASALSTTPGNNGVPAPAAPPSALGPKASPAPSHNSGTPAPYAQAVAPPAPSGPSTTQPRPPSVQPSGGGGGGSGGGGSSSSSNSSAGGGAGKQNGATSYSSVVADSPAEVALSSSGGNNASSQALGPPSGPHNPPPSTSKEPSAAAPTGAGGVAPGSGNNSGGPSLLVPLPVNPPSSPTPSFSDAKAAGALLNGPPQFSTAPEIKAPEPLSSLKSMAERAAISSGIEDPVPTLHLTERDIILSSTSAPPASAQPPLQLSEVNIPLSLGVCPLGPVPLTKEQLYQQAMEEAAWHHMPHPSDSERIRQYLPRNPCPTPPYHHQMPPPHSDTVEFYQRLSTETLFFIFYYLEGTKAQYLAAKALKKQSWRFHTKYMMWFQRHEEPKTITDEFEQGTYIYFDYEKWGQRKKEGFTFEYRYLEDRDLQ

Assays:
Test in all cases: log2 fold change, soluble protein after heating vs DMSO (PISA); higher = thermal stabilisation; K562 lysate, 10 uM; active = over 0.2 and 3.5 SD of the protein, either way, in both replicates (recomputed)
nilotinib = compound: Cc1cn(-c2cc(NC(=O)c3ccc(C)c(Nc4nccc(-c5cccnc5)n4)c3)cc(C(F)(F)F)c2)cn1 [nilotinib]
Summary of the method: (§1)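 Log-two fold change in thermal stability relative to solvent controls is reported from duplicates. For each sample, crude K562 extract from dounce-homogenised pellets in PBS pH 7.4 with 1 mM MgCl2, at 1 mg/mL protein, was treated with 10 μM compound for 30 min. Aliquots heated for 3 min across 48°C-58°C were pooled, brought to 0.5% NP-40 at 4°C and cleared at 21,000xg for 90 min. The supernatant was quantified by TMTpro 16plex LC-MS/MS with channel sums equalised.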

[1] = compound: Cc1nc(Nc2n[nH]c3c2CN(C(=O)N[C@H](CN(C)C)c2ccccc2)C3(C)C)c2sccc2n1
Summary of the method: as §1

dasatinib = compound: Cc1nc(Nc2ncc(C(=O)Nc3c(C)cccc3Cl)s2)cc(N2CCN(CCO)CC2)n1 [dasatinib]
Summary of the method: as §1

[2] = compound: Cc1ncc(-c2ccnc(Nc3ccc(S(C)(=O)=O)cc3)n2)n1C(C)C
Summary of the method: as §1

[3] = compound: Cn1cc(-c2ccc3c(c2)CCN3C(=O)Cc2cccc(C(F)(F)F)c2)c2c(N)ncnc21
Summary of the method: as §1

quisinostat = compound: Cn1cc(CNCC2CCN(c3ncc(C(=O)NO)cn3)CC2)c2ccccc21 [quisinostat]
Summary of the method: as §1

tipifarnib = compound: Cn1cncc1[C@@](N)(c1ccc(Cl)cc1)c1ccc2c(c1)c(-c1cccc(Cl)c1)cc(=O)n2C [tipifarnib]
Summary of the method: as §1

[4] = compound: NC(=O)Nc1cc(-c2cccc(F)c2)sc1C(=O)N[C@H]1CCCNC1
Summary of the method: as §1

[5] = compound: NC(=O)c1cnc(N[C@@H]2CCCC[C@@H]2N)nc1Nc1cccc(-n2nccn2)c1
Summary of the method: as §1

[6] = compound: NC1(c2ccc(-c3nc4ccn5c(=O)[nH]nc5c4cc3-c3ccccc3)cc2)CCC1
Summary of the method: as §1

[7] = compound: NCC(=O)Nc1ccc(-n2nc(C(F)(F)F)cc2-c2ccc3c(ccc4ccccc43)c2)cc1
Summary of the method: as §1

vorinostat = compound: O=C(CCCCCCC(=O)Nc1ccccc1)NO [vorinostat]
Summary of the method: as §1

silmitasertib = compound: O=C(O)c1ccc2c(c1)nc(Nc1cccc(Cl)c1)c1ccncc12 [silmitasertib]
Summary of the method: as §1

[8] = compound: O=C1NC(=O)C(c2cnc3ccccn23)=C1c1cn2c3c(cc(F)cc13)CN(C(=O)N1CCCCC1)CC2
Summary of the method: as §1

entospletinib = compound: c1cn2cc(-c3ccc4cn[nH]c4c3)nc(Nc3ccc(N4CCOCC4)cc3)c2n1 [entospletinib]
Summary of the method: as §1

Measured: log2 fold change

CNOT4 isoform 6 (UniProt O95628)
inactive: nilotinib -0.004 | [1] 0.053 | dasatinib 0.034 | [2] 0.057 | [3] 0.013 | quisinostat 0.107 | tipifarnib -0.018 | [4] 0.041 | [5] -0.022 | [6] 0.008 | [7] -0.028 | vorinostat 0.046 | silmitasertib -0.032 | [8] -0.057 | entospletinib -0.011

COG6 (UniProt Q9Y2V7)
active: vorinostat -0.254
inactive: nilotinib 0.004 | [1] 0.038 | dasatinib -0.085 | [2] -0.041 | [3] -0.005 | quisinostat -0.068 | tipifarnib -0.045 | [4] -0.016 | [5] -0.008 | [6] -0.06 | [7] 0.021 | silmitasertib 0.072 | [8] 0.09 | entospletinib 0.026

CNOT10 (UniProt Q9H9A5)
inactive: nilotinib -0.014 | [1] -0.007 | dasatinib -0.061 | [2] 0.019 | [3] -0.013 | quisinostat -0.01 | tipifarnib -0.047 | [4] 0.063 | [5] 0.018 | [6] -0.015 | [7] -0.058 | vorinostat -0.147 | silmitasertib 0.027 | [8] -0.008 | entospletinib 0.008

COMMD8 (UniProt Q9NX08)
inactive: nilotinib 0.034 | [1] 0.107 | dasatinib -0.109 | [2] 0.079 | [3] -0.015 | quisinostat 0.038 | tipifarnib 0.037 | [4] -0.066 | [5] -0.034 | [6] 0.018 | [7] -0.048 | vorinostat -0.049 | silmitasertib 0.017 | [8] 0.054 | entospletinib -0.26

COX7B (UniProt P24311)
inactive: nilotinib 0.001 | [1] 0.017 | dasatinib -0.008 | [2] 0.016 | [3] 0.025 | quisinostat 0.047 | tipifarnib 0.023 | [4] -0.03 | [5] -0.047 | [6] 0 | [7] -0.043 | vorinostat 0.081 | silmitasertib 0 | [8] 0 | entospletinib 0.104

COA6 isoform 2 (UniProt Q5JTJ3)
inactive: nilotinib -0.258 | [1] -0.181 | dasatinib -0.03 | [2] -0.21 | [3] -0.024 | quisinostat -0.083 | tipifarnib 0.014 | [4] 0 | [5] -0.04 | [6] 0 | [7] -0.06 | vorinostat 0.103 | silmitasertib -0.146 | [8] 0.031 | entospletinib 0.075

COPB2 (UniProt P35606)
inactive: nilotinib 0 | [1] -0.004 | dasatinib -0.008 | [2] 0.009 | [3] -0.008 | quisinostat -0.018 | tipifarnib -0.004 | [4] 0.001 | [5] -0.008 | [6] -0.033 | [7] 0 | vorinostat 0.067 | silmitasertib -0.016 | [8] -0.01 | entospletinib 0.007

COX5A (UniProt P20674)
inactive: nilotinib 0.164 | [1] 0.02 | dasatinib 0 | [2] 0.084 | [3] 0.024 | quisinostat 0.06 | tipifarnib 0.04 | [4] -0.062 | [5] -0.053 | [6] -0.004 | [7] -0.075 | vorinostat 0.29 | silmitasertib -0.041 | [8] 0 | entospletinib -0.028

COL6A5 (UniProt A8TX70)
inactive: nilotinib 0.134 | [1] 0.009 | dasatinib -0.11 | [2] -0.185 | [3] -0.038 | quisinostat -0.377 | tipifarnib -0.236 | [4] 0.017 | [5] 0.051 | [6] -0.014 | [7] 0.281 | vorinostat 0.011 | silmitasertib -0.003 | [8] 0.022 | entospletinib 0.009

COQ9 (UniProt O75208)
inactive: nilotinib 0.021 | [1] 0.03 | dasatinib -0.021 | [2] 0 | [3] -0.007 | quisinostat 0.036 | tipifarnib -0.016 | [4] 0 | [5] 0.002 | [6] -0.018 | [7] 0.005 | vorinostat 0.084 | silmitasertib 0.002 | [8] 0.031 | entospletinib -0.012

COLGALT1 (UniProt Q8NBJ5)
inactive: nilotinib 0.005 | [1] -0.003 | dasatinib -0.021 | [2] -0.021 | [3] -0.007 | quisinostat -0.002 | tipifarnib -0.011 | [4] -0.007 | [5] 0.006 | [6] -0.02 | [7] -0.007 | vorinostat 0.069 | silmitasertib -0.006 | [8] -0.017 | entospletinib -0.014

COX6A1 (UniProt P12074)
inactive: nilotinib 0.093 | [1] -0.087 | dasatinib 0.084 | [2] -0.258 | [3] 0.104 | quisinostat 0.021 | tipifarnib -0.081 | [4] -0.101 | [5] -0.003 | [6] 0.17 | [7] -0.03 | vorinostat 0.048 | silmitasertib -0.021 | [8] 0.156 | entospletinib -0.013

CNP (UniProt P09543)
active: vorinostat -0.298
inactive: nilotinib 0.033 | [1] 0.023 | dasatinib -0.047 | [2] -0.007 | [3] 0.003 | quisinostat -0.028 | tipifarnib -0.055 | [4] -0.009 | [5] -0.007 | [6] -0.009 | [7] -0.017 | silmitasertib -0.001 | [8] 0.059 | entospletinib 0.017

COX20 isoform 2 (UniProt Q5RI15)
inactive: nilotinib 0.051 | [1] -0.023 | dasatinib 0.07 | [2] -0.024 | [3] 0.013 | quisinostat -0.017 | tipifarnib 0.117 | [4] -0.026 | [5] -0.058 | [6] -0.03 | [7] -0.016 | vorinostat -0.079 | silmitasertib 0.011 | [8] -0.037 | entospletinib 0.026

CPSF1 (UniProt Q10570)
inactive: nilotinib 0.019 | [1] 0.024 | dasatinib -0.012 | [2] 0.032 | [3] 0.002 | quisinostat 0.004 | tipifarnib -0.045 | [4] 0.009 | [5] 0.01 | [6] 0.012 | [7] 0.031 | vorinostat -0.147 | silmitasertib 0.02 | [8] -0.026 | entospletinib -0.027

COX19 (UniProt Q49B96)
inactive: nilotinib -0.002 | [1] -0.038 | dasatinib 0.021 | [2] 0.018 | [3] -0.044 | quisinostat 0.026 | tipifarnib 0.042 | [4] -0.003 | [5] 0.022 | [6] -0.029 | [7] -0.059 | vorinostat 0.073 | silmitasertib -0.043 | [8] 0.038 | entospletinib -0.08

COG2 (UniProt Q14746)
active: vorinostat -0.315
inactive: nilotinib 0.024 | [1] 0.008 | dasatinib -0.024 | [2] 0.096 | [3] -0.002 | quisinostat -0.029 | tipifarnib -0.06 | [4] 0.055 | [5] 0.001 | [6] 0.009 | [7] -0.031 | silmitasertib 0.055 | [8] 0.061 | entospletinib 0.058

COMMD5 (UniProt Q9GZQ3)
inactive: nilotinib -0.003 | [1] 0.035 | dasatinib -0.035 | [2] 0.006 | [3] 0.019 | quisinostat -0.03 | tipifarnib 0.051 | [4] -0.006 | [5] 0.006 | [6] -0.031 | [7] 0.012 | vorinostat 0.016 | silmitasertib -0.034 | [8] -0.023 | entospletinib -0.092

Random excerpt: two entries already listed
COL6A5 (UniProt A8TX70)
inactive: nilotinib 0.134 | [1] 0.009 | dasatinib -0.11 | [2] -0.185 | [3] -0.038 | quisinostat -0.377 | tipifarnib -0.236 | [4] 0.017 | [5] 0.051 | [6] -0.014 | [7] 0.281 | vorinostat 0.011 | silmitasertib -0.003 | [8] 0.022 | entospletinib 0.009

COX6A1 (UniProt P12074)
inactive: nilotinib 0.093 | [1] -0.087 | dasatinib 0.084 | [2] -0.258 | [3] 0.104 | quisinostat 0.021 | tipifarnib -0.081 | [4] -0.101 | [5] -0.003 | [6] 0.17 | [7] -0.03 | vorinostat 0.048 | silmitasertib -0.021 | [8] 0.156 | entospletinib -0.013

Additional entries:

CNOT2 (UniProt Q9NZN8)
inactive: nilotinib 0.013 | [1] -0.011 | dasatinib -0.024 | [2] 0.009 | [3] -0.018 | quisinostat -0.026 | tipifarnib -0.074 | [4] 0.024 | [5] 0.02 | [6] -0.001 | [7] 0.044 | silmitasertib 0.015 | [8] -0.009 | entospletinib -0.015
active: vorinostat -0.207

CRADD (UniProt P78560)
inactive: nilotinib 0.016 | [1] -0.079 | dasatinib -0.096 | [2] -0.034 | [3] -0.011 | quisinostat -0.054 | tipifarnib -0.039 | [4] 0.03 | [5] 0.074 | [6] -0.058 | [7] -0.004 | vorinostat 0.039 | silmitasertib 0.041 | [8] -0.001 | entospletinib -0.02

CNOT3 (UniProt O75175)
inactive: nilotinib 0.011 | [1] -0.02 | dasatinib -0.006 | [2] 0.024 | [3] 0.013 | quisinostat 0.188 | tipifarnib -0.037 | [4] 0.01 | [5] 0.016 | [6] -0.004 | [7] 0.027 | vorinostat -0.088 | silmitasertib -0.009 | [8] 0.026 | entospletinib -0.046
